Assay results: publication PMC4081115
Results are given in words; binding and its absence hold for the method and conditions named. Binding seen in cells or lysates may run through a third protein. Some binding calls cover weakened binding; strength is not graded here. Sequences can lack the tags named with a protein.

The chains behind the UniProt entries cited, without tags or fusion partners. Residues count along the entry.
UniProt O95831, residues 102-613: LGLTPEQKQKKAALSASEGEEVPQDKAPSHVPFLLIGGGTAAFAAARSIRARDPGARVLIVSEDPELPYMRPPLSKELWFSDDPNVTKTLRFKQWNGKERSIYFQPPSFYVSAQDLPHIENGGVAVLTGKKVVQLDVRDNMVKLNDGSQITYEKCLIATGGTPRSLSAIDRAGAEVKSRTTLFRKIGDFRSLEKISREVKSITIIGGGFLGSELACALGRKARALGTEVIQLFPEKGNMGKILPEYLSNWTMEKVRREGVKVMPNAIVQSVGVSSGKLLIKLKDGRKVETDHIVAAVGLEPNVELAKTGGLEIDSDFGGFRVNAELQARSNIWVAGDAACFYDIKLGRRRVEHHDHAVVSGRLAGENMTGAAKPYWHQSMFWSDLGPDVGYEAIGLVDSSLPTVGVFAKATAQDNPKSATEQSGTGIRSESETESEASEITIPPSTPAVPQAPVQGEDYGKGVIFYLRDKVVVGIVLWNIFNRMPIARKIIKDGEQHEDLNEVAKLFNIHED

Target: T1, FLAG-tagged STK3 (human (cDNA from HEK293 cells)) (UniProt Q13188)
T1 sequence: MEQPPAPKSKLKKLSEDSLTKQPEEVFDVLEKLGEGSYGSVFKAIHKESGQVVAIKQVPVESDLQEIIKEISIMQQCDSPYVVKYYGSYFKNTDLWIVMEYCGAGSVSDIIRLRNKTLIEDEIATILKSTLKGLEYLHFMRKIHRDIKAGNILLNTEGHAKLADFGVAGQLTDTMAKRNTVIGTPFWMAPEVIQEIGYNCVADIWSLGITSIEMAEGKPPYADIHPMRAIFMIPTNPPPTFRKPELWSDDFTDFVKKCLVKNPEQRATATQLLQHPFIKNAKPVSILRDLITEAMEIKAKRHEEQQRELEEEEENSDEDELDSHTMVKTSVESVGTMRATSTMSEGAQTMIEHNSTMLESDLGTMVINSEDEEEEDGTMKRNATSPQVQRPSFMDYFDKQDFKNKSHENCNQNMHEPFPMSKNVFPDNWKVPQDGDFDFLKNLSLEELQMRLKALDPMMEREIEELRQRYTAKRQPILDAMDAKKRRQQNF
Assay: co-IP; Caki-1 cells transfected with pcDNA3.1-AIF-V5 or pCMV-Flag-STK3 separately, harvested 12 h later; lysates incubated overnight with V5 or FLAG antibody, protein A beads, western blot

binding: binds
Substance: Apoptosis-inducing factor (endogenous, Caki-1) (from UniProt O95831 102-613)
